The assay concerns P388 leukemia ip, CD2F1 mice, survival T/C. The experiment in a line: NCI In Vivo Anticancer Drug Screen. Data for tumor model P388 Leukemia (intraperitoneal) in CD2F1 (CDF1) mice. The note with it: T/C endpoint: median survival time, higher T/C = longer survival.

SMILES strings stand for the structures. The list is a part of this screen's results and no random one: it is rich in T/C values a quarter to a half above the control, in often repeated tests (any T/C) and in doses without a T/C. Other doses and runs of a compound stand elsewhere. T/C gives the treated animals as a percentage of the vehicle group. Some entries give survivors of the animals treated and no T/C: the source holds a T/C of zero for them, seemingly a mark for toxic or unscored doses. Some survivor counts are full or nearly so, which does not show that the dose was tolerated: the source hardly ever lists a survival T/C far under the control, and the zero likely stands for such cases as well. Counts of survivors are from the toxicity check (mostly the fifth day) where no day follows; animals may have died later. Schedule codes are those of the source, taken here to give the interval after Q, in days (D) or hours (H), and the number of doses after X. Some doses were run more than once; the results are listed from low to high. Where survival is the endpoint, this PubChem deposit counts one and a half times the control or more as active, and values a quarter to a half above the control carry no call in these data; other NCI protocols may use other cut-offs. Some T/C values carry the count of animals alive at the toxicity check (mostly the fifth day); where none is given, no animal had died by that day.

Take `O[C@H](c1cc(C(F)(F)F)nc2c(C(F)(F)F)cccc12)[C@@H]1CCCCN1`: the survivor count (dose: 50.0 mg/kg/injection, schedule: Q01DX009 (ip), vehicle: saline with Tween-80) is listed as 4 of 6.

In the case of `Cc1ccc(OP(=O)(Oc2ccc(C)cc2)Oc2ccc(C)cc2)cc1.Cc1ccc(OP(=O)(Oc2ccc(C)cc2)Oc2ccc(C)cc2)cc1.Cc1ccc(OP(=O)(Oc2ccc(C)cc2)Oc2ccc(C)cc2)cc1.Cc1ccc(OP(=O)(Oc2ccc(C)cc2)Oc2ccc(C)cc2)cc1.[O-][Cl+3]([O-])([O-])O.[Zn+2]`, the survivor count (dose: 400.0 mg/kg/injection, schedule: Q04DX003 (ip), vehicle: Klucel (hydroxypropylcellulose) (HPC)) was 4 of 6.

In the case of `CC(=O)NNC(=O)c1ccc2ccccc2n1`, the survivor count (dose: 200.0 mg/kg/injection, schedule: Q01DX009 (ip), vehicle: saline sonified) is on record as 4 of 6.

As for `Cc1ccc(NC(=O)Oc2ccc(Br)cc2Br)c([N+](=O)[O-])c1`, the T/C (dose: 200.0 mg/kg/injection, schedule: Q01DX009 (ip), vehicle: saline with Tween-80) was 126 % of control.

Consider `COC(=O)Nc1nc2ccc(C3(c4ccc(F)cc4)OCCO3)cc2[nH]1`, for which the T/C reads like this: (dose: 40.0 mg/kg/injection, schedule: Q04DX003 (ip), vehicle: saline) 137 % of control; (dose: 100.0 mg/kg/injection, schedule: Q01DX009 (oral), vehicle: saline) 128 % of control. The survivor count (dose: 90.0 mg/kg/injection, schedule: Q04DX003 (ip), vehicle: saline) is listed as 9 of 9 and the survivor count (dose: 100.0 mg/kg/injection, schedule: Q04DX003 (ip), vehicle: saline) is recorded as 9 of 10.

Consider `O=C(Nc1ccc(C2=NCC(O)CN2)cc1)c1ccc(C(=O)Nc2ccc(C3=NCC(O)CN3)cc2)cc1` (stereo not given), for which the T/C was 125 % of control (dose: 3.13 mg/kg/injection, schedule: Q01DX005 (ip), vehicle: saline with Tween-80) and 141 % of control [5 of 6 alive] (dose: 6.25 mg/kg/injection, schedule: Q01DX005 (ip), vehicle: saline with Tween-80). Besides, the survivor count runs as follows: (dose: 12.5 mg/kg/injection, schedule: Q01DX005 (ip), vehicle: saline with Tween-80) 1 of 6 and 3 of 6; (dose: 25.0 mg/kg/injection, schedule: Q01DX005 (ip), vehicle: saline with Tween-80) 0 of 6; (dose: 50.0 mg/kg/injection, schedule: Q01DX005 (ip), vehicle: saline with Tween-80) 0 of 6; (dose: 100.0 mg/kg/injection, schedule: Q01DX005 (ip), vehicle: saline with Tween-80) 0 of 6; (dose: 200.0 mg/kg/injection, schedule: Q01DX005 (ip), vehicle: saline with Tween-80) 0 of 6.

The values above are taken from PubChem BioAssay AID330 (DTP/NCI, 2004).
